Here are results for one compound from US20110039825A1, “LIGANDS OF ALPHA-ADRENOCEPTORS, DOPAMINE, HISTAMINE, IMIDAZOLINE AND SEROTONIN RECEPTORS AND THEIR USE” (Alla Chem, LLC, priority 2007, published 2011).

In the data set the test system is imidazoline receptor I2. Kind of data set: radioligand binding to imidazoline receptor I2 ([3H] Idazoxan). Further details: species or system rat. The method, then: Determination of investigated compounds' binding to imidazoline I2 receptor is carried out according to the method described in [Brown C M, MacKinnon A C, McGrath J C, Spedding M and Kilpatrick A T, a2-Adrenoceptor subtypes and imidazoline-like binding in the rat brain. Br J. Pharmacol. 99:803-809, 1990]. […] Idazoxan is used as positive control.

On to `Cc1ccc2c(c1)c1c(n2CCc2ccccc2)CCN(C)C1.Cl` [1.1.2(1-2)•HCl, 2,8-dimethyl-5-phenethyl-1,2,3,4-tetrahydro-1H-pyrido[4,3-b]indole hydrochloride], for which the “nH imidazoline I2” value came to 0.804.
